Results from patent US20160122421A1.
No constants are given. Whether binding was seen depends on the method and setting. Some binding calls cover weakened binding; strength is not graded here.

By UniProt entry, the sequences of proteins in these tests, tags left out. Where a name states a change or a piece, a line headed by the entry shows the natural chain unless it says otherwise. Chains listed by the source or under a name are the forms on record and can include a tag or linker.
UniProt P10636: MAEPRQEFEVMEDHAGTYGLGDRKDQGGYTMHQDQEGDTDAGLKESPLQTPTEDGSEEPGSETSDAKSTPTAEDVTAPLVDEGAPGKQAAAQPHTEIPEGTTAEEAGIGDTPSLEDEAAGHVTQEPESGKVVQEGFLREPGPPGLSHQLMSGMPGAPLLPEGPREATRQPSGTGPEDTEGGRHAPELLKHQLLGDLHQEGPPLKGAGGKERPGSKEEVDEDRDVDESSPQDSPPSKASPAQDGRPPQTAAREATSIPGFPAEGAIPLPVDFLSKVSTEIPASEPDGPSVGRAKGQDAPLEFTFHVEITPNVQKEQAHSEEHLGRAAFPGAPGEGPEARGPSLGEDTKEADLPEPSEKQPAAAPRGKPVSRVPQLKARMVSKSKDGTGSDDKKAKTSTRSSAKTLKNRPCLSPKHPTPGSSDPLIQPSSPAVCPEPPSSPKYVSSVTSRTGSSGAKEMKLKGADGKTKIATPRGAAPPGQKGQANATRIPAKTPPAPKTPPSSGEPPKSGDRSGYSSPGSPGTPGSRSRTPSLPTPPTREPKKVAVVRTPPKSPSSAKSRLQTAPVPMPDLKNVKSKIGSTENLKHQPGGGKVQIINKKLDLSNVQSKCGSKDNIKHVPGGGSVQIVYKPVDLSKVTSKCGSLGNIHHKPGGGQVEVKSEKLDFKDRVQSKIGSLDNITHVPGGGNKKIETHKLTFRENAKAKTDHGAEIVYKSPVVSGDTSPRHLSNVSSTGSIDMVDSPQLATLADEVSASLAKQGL
human tau P301L (4R2N) expressed in hTau.P301L-Tg mice (P10636, form named): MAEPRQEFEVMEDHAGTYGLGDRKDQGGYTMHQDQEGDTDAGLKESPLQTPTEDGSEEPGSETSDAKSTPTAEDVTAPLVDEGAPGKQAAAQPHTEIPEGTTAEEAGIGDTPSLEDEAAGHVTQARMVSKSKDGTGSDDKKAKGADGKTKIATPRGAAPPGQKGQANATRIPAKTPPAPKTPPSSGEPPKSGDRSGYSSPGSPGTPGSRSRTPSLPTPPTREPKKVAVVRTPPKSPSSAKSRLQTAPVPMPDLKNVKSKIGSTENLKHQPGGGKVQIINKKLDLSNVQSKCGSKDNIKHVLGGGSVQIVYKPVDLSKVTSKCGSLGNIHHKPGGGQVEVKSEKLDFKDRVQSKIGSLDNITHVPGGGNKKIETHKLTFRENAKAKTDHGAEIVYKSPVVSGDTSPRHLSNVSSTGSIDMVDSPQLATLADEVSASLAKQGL

Assays:
[1] = molecular target: human tau P301L (4R2N) expressed in hTau.P301L-Tg mice (human) (UniProt P10636); experiment: Western blot
[2] = molecular target: human tau P301L (4R2N) expressed in hTau.P301L-Tg mice (human) (UniProt P10636); experiment: Western blot; P301L tau mouse brain cortex lysates
full-length phospho-tau [3] = molecular target: full-length phospho-tau (UniProt P10636); experiment: capture ELISA, coated antibody, detection with biotin-BT2 + biotin-HT7
full-length phospho-tau [4] = molecular target: full-length phospho-tau (UniProt P10636); experiment: capture ELISA: antibody coated on the well, full-length phospho-tau titrated 0-100 ng/ml, detected with biotin-labelled non-competitive anti-tau antibodies (BT2 + HT7) and streptavidin-HRP, raw OD
[5] = molecular target: human tau P301L (4R2N) expressed in hTau.P301L-Tg mice (human) (UniProt P10636); experiment: Western blot of interstitial fluid

Row | binding [1] | binding [2] | binding (full-length phospho-tau [3]) | binding (full-length phospho-tau [4]) | binding [5] | Binder
1 | binds | binds |  |  |  | humanized IPN002 variant VH2/Vk1 (antibody, V domains shown) VH: EVHLVESGGALVKPGGSLRLSCAASGFSFSKYGMSWVRQAPGKGLEWVATISSSGSRTYYPDSVKGRFTISRDNAKNTLYLQMNSLRAEDTAMYYCSISWDGAMDYWGQGTTVTVSS VL: DVLMTQSPLSLPVTLGQPASISCKSSQSIVHSNGNTYLEWYLQKPGQSPQLLVYKVSNRFSGVPDRFSGSGSGTDFTLKISRVEAEDVGTYYCFQGSLVPWAFGGGTKVEIK
2 |  |  | binds | binds |  | IPN002 (antibody, V domains shown) VH: EVHLVESGGALVKPGGSLKLSCAASGFSFSKYGMSWVRQTPDKRLEWVATISSSGSRTYYPDSVKGQFTISRDNAKNTLYLQMSSLKSEDTAMYYCSISWDGAMDYWGQGTSVTVSS VL: DVLMTQTPLSLPVSLGDQASISCKSSQSIVHSNGNTYLEWYLQKPGQSPKLLVYKVSNRFSGVPDRFSGSGSGTDFTLKISRVEAEDLGTYYCFQGSLVPWAFGGGTKLEIK
3 | binds | binds |  |  |  | humanized IPN002 variant VH2/Vk2 (antibody, V domains shown) VH: EVHLVESGGALVKPGGSLRLSCAASGFSFSKYGMSWVRQAPGKGLEWVATISSSGSRTYYPDSVKGRFTISRDNAKNTLYLQMNSLRAEDTAMYYCSISWDGAMDYWGQGTTVTVSS VL: DVVMTQSPLSLPVTLGQPASISCKSSQSIVHSNGNTYLEWYLQKPGQSPQLLVYKVSNRFSGVPDRFSGSGSGTDFTLKISRVEAEDVGTYYCFQGSLVPWAFGGGTKVEIK
4 | binds | binds |  |  |  | humanized IPN002 variant VH2/Vk3 (antibody, V domains shown) VH: EVHLVESGGALVKPGGSLRLSCAASGFSFSKYGMSWVRQAPGKGLEWVATISSSGSRTYYPDSVKGRFTISRDNAKNTLYLQMNSLRAEDTAMYYCSISWDGAMDYWGQGTTVTVSS VL: DVVMTQSPLSLPVTLGQPASISCKSSQSIVHSNGNTYLEWYLQKPGQSPQLLVYKVSNRFSGVPDRFSGSGSGTDFTLKISRVEAEDVGVYYCFQGSLVPWAFGGGTKVEIK
5 |  |  |  |  | binds | IPN001 (antibody, V domains shown) VH: EVQLVESGEDLVKPGGSLKLSCVASGFAFSSYGMSWVRQTPDMRLEWVATISSSGSRTYFPDSVKGRLTISRDNDKNILYLQMSSLRSEDTAMYYCTITWDGAMDYWGRGISVTVSS VL: DVLMTQTPLSLAVNLGDQASLSCRSSQTILHSNGNTYLEWYLQKPGQSPRLLIYKVSKRFSGVPDRFSGSGSGTDFTLKISRVEADDLGIYYCFQGSLVPWAFGGGTKLEIK
